PubChem BioAssay AID1259254, NCATS | 2017

- Test: 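Gene knock-downs that lead to re-replication, shown by excess G2 DNA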 (primary screen)
- Cells: human HCT116 colorectal cancer cells
- Knock-down reagent: single siRNA against human genes
- Time to read-out: 3 days
- Measurement: 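Nuclei stained with Hoechst and imaged; cell-cycle phase assigned by DNA content; G2 share scaled per plate, non-targeting siRNA 0%, GMNN siRNA 100%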
- Reading the numbers: G2 robust z-score and G2 cells, % of GMNN control: higher = more G2 cells, more excess DNA replication; raw share of cells in G2: higher = larger share of cells with G2 DNA content
- Call rule: 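An siRNA counts as active if its G2 robust z-score lies at least 5 MADs above the screen median; here such calls match roughly 38% of GMNN control or more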
Shown is an unselected part of about 59,000 reagents. About 1,550 of all reagents (2.6%) count as active. 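G2 share is only a proxy for re-replication; each gene was hit by three separate siRNAs, and active genes were retested.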 The raw values are shown without normalisation. Reagents against one gene are numbered here. Not stated in the record: the amount of reagent.

no.	Target gene	siRNA no.	G2 robust z-score	G2 cells, % of GMNN control	raw share of cells in G2 (%)	outcome
1	FTSJ1	1	0.444	6.09	5.98	inactive
2	FTSJ1	2	2.67	21.7	11.4	inactive
3	FTSJ1	3	-0.563	-0.993	5.71	inactive
4	NKPD1	1	0.268	4.85	4.74	inactive
5	NKPD1	2	1.22	11.5	7.85	inactive
6	NKPD1	3	1.09	10.6	7.15	inactive
7	SYCP2L	1	2.87	23.1	10.6	inactive
8	SYCP2L	2	0.481	6.35	5.88	inactive
9	SYCP2L	3	-0.816	-2.78	2.18	inactive
10	LASP1	1	-0.688	-1.88	4.73	inactive
11	LASP1	2	-0.176	1.73	6.03	inactive
12	LASP1	3	1.31	12.2	7.21	inactive
13	ZNF622	1	1.87	16.1	13.2	inactive
14	ZNF622	2	3.19	25.4	15.9	inactive
15	ZNF622	3	0.813	8.69	7.76	inactive
16	ECEL1	1	1.54	13.8	10.4	inactive
17	ECEL1	2	-0.595	-1.22	4.48	inactive
18	ECEL1	3	-0.618	-1.38	3.4	inactive
19	DAGLB	1	-0.0538	2.59	4.52	inactive
20	DAGLB	2	1.57	14	7.92	inactive
21	DAGLB	3	10.5	76.7	27.7	active
22	ARMCX5	1	-0.319	0.725	4.9	inactive
23	ARMCX5	2	-0.721	-2.1	3.67	inactive
24	ARMCX5	3	0.139	3.94	3.74	inactive
25	WIPI1	1	-0.712	-2.04	3.74	inactive
26	WIPI1	2	0.295	5.04	6.23	inactive
27	WIPI1	3	-0.97	-3.86	1.91	inactive
28	ARID1A	1	2.42	20	11.9	inactive
29	ARID1A	2	1.34	12.4	9.61	inactive
30	ARID1A	3	-0.43	-0.0546	4.51	inactive
31	AQP4	1	-0.636	-1.51	4.21	inactive
32	AQP4	2	4.87	37.2	18.3	inactive
33	AQP4	3	3.92	30.5	15.4	inactive
34	GUCA1B	1	-0.455	-0.237	3.37	inactive
35	GUCA1B	2	-0.805	-2.7	3.58	inactive
36	GUCA1B	3	-0.614	-1.35	2.62	inactive
37	JADE2	1	2.05	17.4	13.3	inactive
38	JADE2	2	-1.27	-5.98	2.15	inactive
39	JADE2	3	-0.241	1.27	4.3	inactive
40	NR2F2-AS1	1	-0.942	-3.66	2.08	inactive
41	NR2F2-AS1	2	-0.467	-0.317	3.52	inactive
42	NR2F2-AS1	3	-0.0386	2.7	4.24	inactive
43	CRLF3	1	-1.41	-6.92	1.13	inactive
44	CRLF3	2	2.01	17.1	11.5	inactive
45	CRLF3	3	-0.063	2.52	4.03	inactive
46	NAGS	1	-1.3	-6.18	3.01	inactive
47	NAGS	2	-1.32	-6.29	2.4	inactive
48	NAGS	3	0.473	6.3	7.35	inactive
